No constants are given. Whether binding was seen depends on the method and setting. Binding seen in cells or lysates may run through a third protein. Binding can be weak; no strength is given. Where a sequence is shown, tags or fusion partners need not be part of it.
B1: HelRSv (rifamycin associated helicase-like protein of Streptomyces venezuelae) (protein, UniProt F2RC64 1-722)
chain: MRVLSSVDQLDGTSAFDLPDRLSAKTDPALIAADERHFSAIAKSLAETITELSDRLDATRKAPGGVGREAMDRDAEIHRLTGRLRTLRRFGLDLCLGRIVTADDAEPVYVGRLGLTDSTGRRLLVDWRSPAAEPFFAATHADPMGLTSRRRYRWTGGRVSDYWDEVFTADGLEEHAALDDQSAFIASLGSSRSPQMRDVLATIQADQDAIIRAGSRGTLVVDGGPGTGKTVVALHRSAHLLYADPRLGHRRGGVLFVGPHQPYLAYVADVLPSLGEEGVRTCTVRDLVAEGAGAAVERDAEVARLKSSADMVRAIEAAVRFYEEPPTQRMTVSTDWADVRLTADDWAEAFDAPEAGTPHNEAREQIWEELGSILLGKLGDEVPEEEFRRALRQDEELAGALHGAWPLLEAADLVGDLWSVPAYLRKCAPWLDREDVAKLQRADAQAWTVSDLPLLDAARQRLGDPEAARRRRRQQATVAAERARMADVIADVLAADDDGEGAVTMLRGQDLKDTLVDEAALTGVEPDLLAGPFAHIVVDEAQELSDAEWQMLLLRCPSRSFTIVGDRAQARHGFTESWEERLARVGLDRITVASLSINYRTPEEVMAEAEPAIRAALPDANVPTSVRSSGVPVLRGPVEELDTIVDEWLAANADGTACVIGAPRFRPGPRVRSLTPSLSKGLEFDLVVLVDPEDFGGGIEGAVDRYVAMTRATKQLVILTSS
B2: Rox (rifamycin monooxygenase of S. venezuelae) (enzyme, UniProt F2R776 1-476)
chain: MFDVIVVGGGPTGLMLAGELRLHGVRVLVLEKETEPTRQSRAQGLHVRSIEVMAQRGLLERFLERGHTVAVGGFFAGLATSWPERLDTAHSYVLAVPQVITEQLLAEHATALGAEIRRGRALVGLRQDEDGVTVDLADGEQLRARYVVGCDGGRSTVRKLLGVAFPGEPSRVETLLGEMEMTASQEELTSVMTEVRKTQQRFGAMPLGDGVFRVVVPAEGVAEDRTASPTLDEFKQQLRAHAGTDFGVHSPRWLSRFGDATRQAERYRVDRVFLAGDAAHIHPPTGGQGLNLGIQDAFNLGWKLAAEVDGWAPEGLLDTYHAERHPVATEVLDNTRAQIQLMSTEPGPQAVRRLMAELVEFENVNRYLIEKITAISVRYDVGEGHELLGRRMRDLALKHGRLYERMHEGRGLLLDQTGRLSVAGWEDRVDHVVEVSEELDVPAVLLRPDGHVVWAGEDQQELLTRMPAWFGAATAG

Target: RNA polymerase (RNAP) of Streptomyces venezuelae (Streptomyces venezuelae (endogenous))
Assay: co-purification with native RNAP

Binder	binding
B1	binds
B2	no binding
